The full ranking holds about 33,000 sequences; the median of “E-score (-0.5 to 0.5)” is about -0.0034, and the highest 2% start at about 0.25. This is one part of the list.
target: T1, Yap3 (UniProt P38749); test: PBM E-score (8-mer binding enrichment) (E-score (-0.5 to 0.5)); higher = stronger / more preferred TF binding; conditions: protein concentration: 100 nM; construct: GST-full length
T1 sequence: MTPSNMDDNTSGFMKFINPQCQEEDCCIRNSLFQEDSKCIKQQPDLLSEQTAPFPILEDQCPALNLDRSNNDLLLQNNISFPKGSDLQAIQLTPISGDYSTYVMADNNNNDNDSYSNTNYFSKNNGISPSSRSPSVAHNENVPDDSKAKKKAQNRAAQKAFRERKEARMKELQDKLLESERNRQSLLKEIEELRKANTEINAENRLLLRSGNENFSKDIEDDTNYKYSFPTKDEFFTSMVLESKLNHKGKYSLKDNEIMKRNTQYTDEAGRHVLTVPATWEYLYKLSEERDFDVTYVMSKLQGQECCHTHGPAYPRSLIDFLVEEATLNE
Method in brief: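 Bound GST-tagged yeast transcription factors, applied at about 100-200 nM to double-stranded universal all-10-mer Agilent arrays, were detected with fluorescent anti-GST. Scans were normalised with masliner. A modified Wilcoxon-Mann-Whitney statistic, the E-score, was assigned to each ungapped eight-base word pooled with its reverse complement by the Universal PBM Analysis Suite.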

Sequence	PBM E-score
CTGCCTCA	-0.103
GATTAGCA	0.108
TCGCAACA	-0.00199
ATTGACCA	0.0958
GCAATGGA	0.0106
ACTACCGG	-0.1
CTGGGGCC	-0.311
AAACAAGT	0.147
GCAATTCC	-0.0127
ATGTTGAG	0.0495
AACTTTGG	-0.043
ACCACATC	0.0205
AACAGGTG	-0.0407
CCAAATCG	-0.154
ACAATACC	0.14
GGGGTACA	-0.267
CCTCAGAC	0.0436
TGGTCACA	-0.0455
GGGGAACC	-0.316
AGCAACCT	-0.129
CTGACCAA	0.153
GCACCCCC	-0.276
ACCGTGAT	0.0952
ACCTGACG	-0.116
ACCGGGTG	-0.17

Sequence	PBM E-score
ACCACGTC	-0.0114
CTCTCGTA	-0.063
AGCAGTAC	0.0364
ATACATCA	0.207
ACTAGCGA	-0.201
AAACGGCA	0.117
GTCTTCAA	-0.075
CCTTCAGC	-0.0432
CCGCGGAG	0.0132
CAGACATA	0.0209
CCCTACGG	-0.226
CGCGTAGC	-0.052
GATCACGA	0.109
CTAGAATA	0.0631
ATACTCGC	0.161
GACACTAC	0.0232
CAGAGGTA	0.0613
GGATCCAC	-0.0381
GATGCCGC	-0.201
GGGCTCAA	-0.101
AATTCGCA	0.16
GGCGTAGA	-0.0933
CGAGCTCG	0.196
CTAACACC	0.0413
ACAGCTCC	-0.0502

Sequence	PBM E-score
GATGTTCC	-0.0548
ATTCGTAC	0.22
AAGAGATA	-0.0203
AAATGTAG	0.0746
TACAATCA	0.138
GAGCACTA	-0.0463
ATCGCAAA	0.116
CGAAGTCA	-0.0925
ATTCGCTC	0.11
TATTGCCA	0.105
GCGCTGGA	-0.214
AGCGTTGG	-0.0491
GCTGCCCA	-0.328
AAGATGGA	0.0527
GCTAATCA	0.164
GATCAGGC	-0.0869
ATTGAGTG	0.0357
AGTCTAGA	-0.202
TCCAAGGA	-0.0575
CGTGCTAA	-0.0383
CCATTTGA	-0.0292
ACCCTCCC	0.0821
AATCTTGT	0.103
GTCGCAGA	-0.0305
GATCGACA	-0.00076

Two entries from above in another layout:
Sequence | PBM E-score
TATTGCCA | 0.105
GCGCTGGA | -0.214

Next part

Sequence	PBM E-score
ACGTCAAC	-0.0222
TACTCCAA	0.115
TCTTCGCA	0.133
CTTCAGTC	-0.0116
AACGAAGG	-0.0577
ACGAGCCC	-0.129
CAACTCAC	0.0028
GCAGAATA	0.208
CAGTCTGG	-0.24
ATACGGGC	-0.147
ATACCGAA	0.108
ATTCTATG	0.129
AGGATATG	0.201
TGAACAAA	0.248
AGACCCCC	-0.455
ATCTATTA	0.251
CCCCTGAA	0.0163
ATGTATGG	-0.0299
AGCGCGGA	0.124
CTTTGCCC	-0.176
ACGCACTA	0.0231
GCTAGTTA	-0.0255
AAGGGTAG	-0.16
CCTTCAAG	-0.214
AGCACGAT	-0.052

Sequence	PBM E-score
CATCCAAG	-0.099
ACTGTTGA	-0.0113
AGTATCTG	-0.148
ACGATGCA	-0.0134
ATAGTAGA	0.188
GAGGTATA	0.185
TATATGAA	0.203
CGTGGTTA	-0.0282
CGAAAGCC	-0.236
CCGCCTTA	-0.232
CAGGTTGG	-0.0354
ACAATGCA	0.128
CCGCACGG	-0.117
ATGTTCAA	0.00069
AGATTCCA	0.15
AAGTTCCT	-0.0895
AGTACTAA	0.222
AGTCCGTC	-0.0473
AAGACACG	0.141
ATCGACGC	0.0589
GCGATACC	-0.067
CCTTAGCA	-0.102
AGAACTGA	0.114
ATGGGGCG	-0.111
TCTGGCCA	-0.0631

Sequence	PBM E-score
GCGGTTGA	0.104
GGATTAAA	0.154
ATTTAGTA	0.289
GGCCAGAC	-0.156
TATACGAA	0.182
GGCCAACC	-0.171
AATTCCAC	0.129
ACACTCCT	-0.086
AATGATAA	0.177
GGACCCCC	-0.471
GAGCGCGC	0.121
AAGTTCAT	0.0239
CACGTTGC	-0.183
AGGGAGTA	-0.02
AGGTCGAC	0.18
AGGCGGCC	-0.208
AGACCACC	-0.209
ACTTGCAC	0.0734
GCGCAAAA	0.0616
AAATGTGG	0.12
ACTGGCAA	0.0804
ACCGTAAA	0.0661
AAACGTAT	0.145
ATCAAGGG	0.0005
AAATATGG	0.0893

Quoted from the listing.
PBM E-score with ACCACGTC reads -0.0114
PBM E-score with CTGGGGCC reads -0.311
PBM E-score with ATCAAGGG reads 0.0005
PBM E-score with AGCGCGGA reads 0.124
PBM E-score with TGGTCACA reads -0.0455

Next records follow:

Sequence	PBM E-score
CTTGGGCC	-0.341
CGAGCACC	-0.0918
ACGACGAT	0.0903
GTATCAAC	0.017
CAGGATTA	0.109
TATCGAAA	0.19
CTTGTCGC	-0.1
TACGCATA	0.159
AACTAAAG	0.12
AGGGAACA	-0.0788
ACTGAGAT	0.0878
GCGATCCC	-0.303
GCGCCCGC	-0.193
TCAATTGA	0.0705
GCAAGAAC	0.177
CCAGCGCG	-0.0856
CATCGGTC	-0.0737
AGACCTTC	-0.113
GCCCATCA	-0.185
CAGAGATG	-0.00542
CATCTTCA	-0.0969
CCTGACTC	-0.0934
